{
  "sequences": {"note": "Protein sequences, listed by entry. Tags and fused reporters are not part of them. Residues count along the entry.", "UniProt P19490, residues 19-907": "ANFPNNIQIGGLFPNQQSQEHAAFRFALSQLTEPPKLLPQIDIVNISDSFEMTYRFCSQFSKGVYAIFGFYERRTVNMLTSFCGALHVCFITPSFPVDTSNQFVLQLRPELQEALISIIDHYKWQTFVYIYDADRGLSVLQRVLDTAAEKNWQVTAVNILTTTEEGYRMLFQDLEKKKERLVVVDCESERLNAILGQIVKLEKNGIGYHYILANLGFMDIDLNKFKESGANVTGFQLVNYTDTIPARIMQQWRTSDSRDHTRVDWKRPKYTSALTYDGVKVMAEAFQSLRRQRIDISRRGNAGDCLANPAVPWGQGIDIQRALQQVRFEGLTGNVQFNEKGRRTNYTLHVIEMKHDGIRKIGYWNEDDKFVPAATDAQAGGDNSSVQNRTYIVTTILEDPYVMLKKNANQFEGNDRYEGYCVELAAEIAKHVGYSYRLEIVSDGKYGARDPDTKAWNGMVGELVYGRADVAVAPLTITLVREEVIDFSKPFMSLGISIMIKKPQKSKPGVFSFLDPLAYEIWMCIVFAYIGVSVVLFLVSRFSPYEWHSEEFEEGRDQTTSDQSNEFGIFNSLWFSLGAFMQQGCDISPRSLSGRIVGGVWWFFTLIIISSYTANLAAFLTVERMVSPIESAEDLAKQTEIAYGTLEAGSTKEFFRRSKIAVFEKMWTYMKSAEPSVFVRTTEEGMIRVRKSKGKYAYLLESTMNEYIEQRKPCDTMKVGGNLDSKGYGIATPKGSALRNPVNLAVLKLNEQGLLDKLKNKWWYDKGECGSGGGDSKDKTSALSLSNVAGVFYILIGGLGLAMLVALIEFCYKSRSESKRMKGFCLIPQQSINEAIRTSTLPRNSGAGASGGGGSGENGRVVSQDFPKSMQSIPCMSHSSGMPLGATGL"},
  "source": "paper PMC6450497",
  "binders": {"B1": {"name": "FK506-binding protein 51 (FKBP51) expressed from pCMV6 FKBP5 in HEK293T cells (protein, UniProt Q13451 1-457)", "chain": "MTTDEGAKNNEESPTATVAEQGEDITSKKDRGVLKIVKRVGNGEETPMIGDKVYVHYKGKLSNGKKFDSSHDRNEPFVFSLGKGQVIKAWDIGVATMKKGEICHLLCKPEYAYGSAGSLPKIPSNATLFFEIELLDFKGEDLFEDGGIIRRTKRKGEGYSNPNEGATVEIHLEGRCGGRMFDCRDVAFTVGEGEDHDIPIGIDKALEKMQREEQCILYLGPRYGFGEAGKPKFGIEPNAELIYEVTLKSFEKAKESWEMDTKEKLEQAAIVKEKGTVYFKGGKYMQAVIQYGKIVSWLEMEYGLSEKESKASESFLLAAFLNLAMCYLKLREYTKAVECCDKALGLDSANEKGLYRRGEAQLLMNEFESAKGDFEKVLEVNPQNKAARLQISMCQKKAKEHNERDRRIYANMFKKFAEQDAKEEANKAMGKKTSEGVTNEKGTDSQAMEEEKPEGHV"}},
  "target": "GluR1 expressed from pCI-SEP-GluR1 in HEK293T cells (UniProt P19490)",
  "test": "co-IP; anti-C-GluR1 antibody on 2 mg pre-cleared lysate of HEK293T cells transfected with pCI-SEP-GluR1 and pCMV6 FKBP5 or empty vector, with or without 100 µM AMPA for 10 min before harvest; overnight 4°C, Protein A Dynabeads; rabbit IgG as control",
  "note": "No constants are given. Whether binding was seen depends on the method and setting. In cells and extracts the contact can be indirect. Some binding calls cover weakened binding; strength is not graded here.",
  "data": [
    {"binder": "B1", "values": [
      {"measurement": "binding", "value": "binds"}
    ]}
  ]
}
